Source: PubChem BioAssay AID1259405 (NCATS, 2018)
Purpose: 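Mouse-designed siRNAs used to find CHO productivity engineering targets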 (primary screen). Cells: Chinese hamster CHO-K1 ovary cells with stable secreted eGFP expression. Knock-down reagent: single siRNA against mouse genes, 0.8 pmol siRNA per well (2 µl of 400 nM stock). Timing: 3 days. Read-out: 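Per-well intracellular GFP measured by laser scanning cytometry, plus viability from ATP luminescence, each relative to plate median of non-targeting control wells, in %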. Scale: GFP, % of control: higher = more GFP per well, higher productivity; viability (ATP), % of control: higher = more viable cells (more ATP). Rule for the call: 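Called active when intracellular GFP, relative to negative control, is at or above 120%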.
The deposit covers about 50,000 reagents; below is an unselected part. Over the whole deposit, about 4,000 (8%) are marked active. 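Mouse siRNA library applied to hamster cells; one well for each siRNA.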 Unmarked entries are inactive. The numbers tell different reagents against one gene apart. No sequences are given here.

target gene	reagent no.	GFP, % of control	viability (ATP), % of control
Pax5 (paired box 5)	1	95.1	103
Pax5 (paired box 5)	2	100	96.2
Ptcra (pre T cell antigen receptor alpha)	1	56.7	55.2
Ptcra (pre T cell antigen receptor alpha)	2	77.2	80
Ptcra (pre T cell antigen receptor alpha)	3	59.1	57.9
Or10d1b (olfactory receptor family 10 subfamily D member 1B)	1	135 (active)	73.6
Or10d1b (olfactory receptor family 10 subfamily D member 1B)	2	85.7	89.7
Or10d1b (olfactory receptor family 10 subfamily D member 1B)	3	80	118
Cd160 (CD160 antigen)	1	70.2	60.4
Cd160 (CD160 antigen)	2	94.5	75.8
Cd160 (CD160 antigen)	3	127 (active)	91.2
Ttll4 (tubulin tyrosine ligase-like family, member 4)	1	72.2	72
Ttll4 (tubulin tyrosine ligase-like family, member 4)	2	74.8	76.1
Trf (transferrin)	1	102	118
Trf (transferrin)	2	44.5	32.7
Trf (transferrin)	3	77.5	77.6
Erdr1x (erythroid differentiation regulator 1 x)	1	69.4	74.4
Erdr1x (erythroid differentiation regulator 1 x)	2	82.4	68.6
Erdr1x (erythroid differentiation regulator 1 x)	3	87.2	55.9
Slc25a11	1	139 (active)	95.7
Slc25a11	2	105	115
Slc25a11	3	142 (active)	73.1
M6pr (mannose-6-phosphate receptor, cation dependent)	1	140 (active)	104
M6pr (mannose-6-phosphate receptor, cation dependent)	2	115	69.4
Rassf3 (Ras association (RalGDS/AF-6) domain family member 3)	1	67.9	88.7
Rassf3 (Ras association (RalGDS/AF-6) domain family member 3)	2	51.2	75
Rassf3 (Ras association (RalGDS/AF-6) domain family member 3)	3	28.6	42.1
Ucma (upper zone of growth plate and cartilage matrix associated)	1	71.2	88.7
Ucma (upper zone of growth plate and cartilage matrix associated)	2	80	83
Ucma (upper zone of growth plate and cartilage matrix associated)	3	50.8	51.1
Or5d46 (olfactory receptor family 5 subfamily D member 46)	1	112	18.2
Or5d46 (olfactory receptor family 5 subfamily D member 46)	2	117	84
Or5d46 (olfactory receptor family 5 subfamily D member 46)	3	101	69.9
Wars1 (tryptophanyl-tRNA synthetase1)	1	60.3	75.3
Wars1 (tryptophanyl-tRNA synthetase1)	2	68.8	55.1
Sprr2e (small proline-rich protein 2E)	1	56.9	66.5
Sprr2e (small proline-rich protein 2E)	2	118	127
Sprr2e (small proline-rich protein 2E)	3	133 (active)	152
Dhx9 (DExH-box helicase 9)	1	161 (active)	85.8
Dhx9 (DExH-box helicase 9)	2	102	116
Dhx9 (DExH-box helicase 9)	3	94.9	92.1
Tlr6 (toll-like receptor 6)	1	94.9	71.8
Tlr6 (toll-like receptor 6)	2	76.8	59.9
Tlr6 (toll-like receptor 6)	3	67.8	60.2
Spice1 (spindle and centriole associated protein 1)	1	61.9	96.6
Spice1 (spindle and centriole associated protein 1)	2	86.7	27
Spice1 (spindle and centriole associated protein 1)	3	58.4	67
Myo5b (myosin VB)	1	91.6	82.6
Myo5b (myosin VB)	2	95.5	101
Or5m3 (olfactory receptor family 5 subfamily M member 3)	1	50.2	75
Or5m3 (olfactory receptor family 5 subfamily M member 3)	2	71.8	82.4
Or5m3 (olfactory receptor family 5 subfamily M member 3)	3	95.2	54.3
Aoah (acyloxyacyl hydrolase)	1	123 (active)	142
Aoah (acyloxyacyl hydrolase)	2	65.5	76.4
Pdgfc (platelet-derived growth factor, C polypeptide)	1	68.8	74.5
Pdgfc (platelet-derived growth factor, C polypeptide)	2	77.3	76.8
Pdgfc (platelet-derived growth factor, C polypeptide)	3	52	76

Taken from above:
For “GFP, % of control”, Or5d46 (olfactory receptor family 5 subfamily D member 46) #1 is entered as 112
Under “viability (ATP), % of control”, Or5d46 (olfactory receptor family 5 subfamily D member 46) #3 has 69.9
Dhx9 (DExH-box helicase 9) #1, GFP, % of control → 161 (active)
Tlr6 (toll-like receptor 6) #1, viability (ATP), % of control → 71.8
Entry for Sprr2e (small proline-rich protein 2E) #1 in “GFP, % of control”: 56.9
Under “viability (ATP), % of control”, Wars1 (tryptophanyl-tRNA synthetase1) #2 has 55.1
